Article PMC11574271
Results are given in words; binding and its absence hold for the method and conditions named. In cells and extracts the contact can be indirect.

Amino acid sequences for entries named in this document (tags omitted). A change or cut given only in a name is not applied to a line headed by its entry. Residues count along the entry.
UniProt Q04912, residues 25-1400: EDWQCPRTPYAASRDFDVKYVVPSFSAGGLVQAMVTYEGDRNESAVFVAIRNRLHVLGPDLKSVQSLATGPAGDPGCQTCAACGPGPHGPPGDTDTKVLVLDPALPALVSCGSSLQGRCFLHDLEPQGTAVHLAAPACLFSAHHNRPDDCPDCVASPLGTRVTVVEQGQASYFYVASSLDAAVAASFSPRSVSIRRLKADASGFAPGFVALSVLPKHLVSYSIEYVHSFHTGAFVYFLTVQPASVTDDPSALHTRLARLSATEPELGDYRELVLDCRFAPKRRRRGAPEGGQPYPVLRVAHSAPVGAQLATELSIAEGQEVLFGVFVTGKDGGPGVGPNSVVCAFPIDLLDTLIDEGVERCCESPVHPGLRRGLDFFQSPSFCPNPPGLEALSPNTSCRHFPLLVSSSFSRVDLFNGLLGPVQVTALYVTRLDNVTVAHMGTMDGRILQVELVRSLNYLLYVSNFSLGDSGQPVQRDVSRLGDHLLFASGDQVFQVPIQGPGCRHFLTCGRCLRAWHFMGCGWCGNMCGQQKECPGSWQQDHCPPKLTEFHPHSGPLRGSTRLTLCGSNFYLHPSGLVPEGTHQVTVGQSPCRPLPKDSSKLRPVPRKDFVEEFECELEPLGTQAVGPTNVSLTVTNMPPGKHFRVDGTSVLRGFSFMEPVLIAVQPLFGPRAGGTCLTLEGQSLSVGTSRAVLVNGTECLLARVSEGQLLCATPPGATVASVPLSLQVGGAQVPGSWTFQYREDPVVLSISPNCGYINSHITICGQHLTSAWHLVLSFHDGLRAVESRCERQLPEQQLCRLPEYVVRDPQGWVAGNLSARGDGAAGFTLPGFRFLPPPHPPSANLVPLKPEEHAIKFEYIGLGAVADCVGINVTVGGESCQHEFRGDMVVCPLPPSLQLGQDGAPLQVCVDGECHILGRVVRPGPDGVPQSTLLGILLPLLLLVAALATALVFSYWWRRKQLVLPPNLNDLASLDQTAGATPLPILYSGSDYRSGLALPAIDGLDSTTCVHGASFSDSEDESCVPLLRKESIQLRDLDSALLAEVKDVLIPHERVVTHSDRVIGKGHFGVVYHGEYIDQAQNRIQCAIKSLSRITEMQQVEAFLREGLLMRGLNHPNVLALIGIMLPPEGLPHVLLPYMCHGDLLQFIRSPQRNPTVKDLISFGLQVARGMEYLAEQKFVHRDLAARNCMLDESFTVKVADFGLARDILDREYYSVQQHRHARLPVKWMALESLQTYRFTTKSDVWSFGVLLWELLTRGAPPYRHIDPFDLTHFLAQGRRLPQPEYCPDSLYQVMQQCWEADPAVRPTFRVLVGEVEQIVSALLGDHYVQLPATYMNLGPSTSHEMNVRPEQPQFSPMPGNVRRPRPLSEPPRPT
UniProt P39900: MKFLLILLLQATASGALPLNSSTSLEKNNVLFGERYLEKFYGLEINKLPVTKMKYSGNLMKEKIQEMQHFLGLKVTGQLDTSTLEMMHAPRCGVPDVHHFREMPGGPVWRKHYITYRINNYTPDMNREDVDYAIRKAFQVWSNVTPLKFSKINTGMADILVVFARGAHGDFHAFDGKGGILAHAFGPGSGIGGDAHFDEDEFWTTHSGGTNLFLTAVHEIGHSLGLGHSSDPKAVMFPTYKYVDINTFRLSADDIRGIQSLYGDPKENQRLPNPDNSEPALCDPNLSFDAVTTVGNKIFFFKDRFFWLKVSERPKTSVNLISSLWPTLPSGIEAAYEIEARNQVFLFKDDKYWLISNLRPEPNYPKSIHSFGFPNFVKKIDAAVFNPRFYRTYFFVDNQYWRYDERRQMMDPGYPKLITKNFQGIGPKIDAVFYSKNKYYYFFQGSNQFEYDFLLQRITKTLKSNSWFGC

Target: RON receptor tyrosine kinase (recepteur d'Origine nantais) (human) (UniProt Q04912)
Assay: co-IP; cells lysed in RIPA buffer with PMSF and protease inhibitor; lysate mixed with specific antibodies, then protein G Sepharose beads; isotype-matched IgG as control; Western blot; several cell lines tested

- binding: no binding
Substance: matrix metalloproteinase-12 (MMP12) (from UniProt P39900) (enzyme)
